# In the supplement of paper PMC8728848:
# The other results are listed elsewhere or left out.
# B1: PX9916F-bfa-443-24-443 (Bacteroides fragilis) (protein)
# chain: DIRPVGSVIPQTAEEYRALLARAYLNVPNDRGLACLRSDEMLVNDNEYDRNSYGDIERWNDVSPFPGTSQFTWSNFYNVLFIANQVIESQKEITEGTPEVVNQLVGEAHLLRAYLHFVLVNLHGQPYTKSGALNSKSIPLKLDTDLEKTLGRNTVEEVYTSILSDIEHARELINKEKWETVFSYRFNVLSVDALQSRVSLYMGAWPKCLESAEAVLAKKSVLVDMNETPLALPNHFESVESITALEQVMGSSVNNAVWVPATFLALYQEGDKRLAAYFAAPDENGNRKSSKGGKREFSCTFRVGELYLNAAEAAANMDKLPHARMRLLELMRKRYTPEAYDKKENAVNVMDKNALISEILNERARELAFEGHRWFDLRRTTRPRMVKVLQGKTYILEQDDPRYTIPIPRDAIAANPGLAN
# Tests used:
# Assay in all cases: glycan array binding signal (z-score within array); higher = stronger binding
# Details in all cases: glycan notation: IUPAC condensed, linker removed
# [1] = biological target: Neu5Ac(a2-3)Gal(b1-4)GlcNAc(b1-6)GalNAc
# Outline: (§1)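 Negative Z-scores can be read as non-binding. The Z-score is calculated within each array and then averaged across arrays of one protein sequence at different concentrations or buffers and across linkers. Arrays, 3228 in all, were curated from the Consortium for Functional Glycomics database and kept only where the protein sequence was available.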
# [2] = biological target: Neu5Ac(a2-3)Gal(b1-4)GlcNAc(b1-6)[Gal(b1-3)]GalNAc
# Outline: as §1
# [3] = biological target: Neu5Ac(a2-3)Gal(b1-4)GlcNAc(b1-6)[Neu5Ac(a2-3)Gal(b1-3)]GalNAc
# Outline: as §1
# [4] = biological target: Neu5Ac(a2-3)Gal(b1-4)GlcNAc6S
# Outline: as §1
# [5] = biological target: Neu5Ac(a2-3)Gal(b1-4)[Fuc(a1-3)]GlcNAc
# Outline: as §1
# [6] = biological target: Neu5Ac(a2-3)Gal(b1-4)[Fuc(a1-3)]GlcNAc(b1-2)Man
# Outline: as §1
# [7] = biological target: Neu5Ac(a2-3)Gal(b1-4)[Fuc(a1-3)]GlcNAc(b1-3)Gal
# Outline: as §1
# [8] = biological target: Neu5Ac(a2-3)Gal(b1-4)[Fuc(a1-3)]GlcNAc(b1-3)Gal(b1-4)GlcNAc
# Outline: as §1
# [9] = biological target: Neu5Ac(a2-3)Gal(b1-4)[Fuc(a1-3)]GlcNAc(b1-3)Gal(b1-4)[Fuc(a1-3)]GlcNAc(b1-3)Gal(b1-4)[Fuc(a1-3)]GlcNAc
# Outline: as §1
# [10] = biological target: Neu5Ac(a2-3)Gal(b1-4)[Fuc(a1-3)]GlcNAc(b1-3)GalNAc
# Outline: as §1
# [11] = biological target: Neu5Ac(a2-3)Gal(b1-4)[Fuc(a1-3)]GlcNAc(b1-6)[Gal(b1-3)]GalNAc
# Outline: as §1
# [12] = biological target: Neu5Ac(a2-3)Gal(b1-4)[Fuc(a1-3)]GlcNAc(b1-6)[Neu5Ac(a2-3)Gal(b1-3)]GalNAc
# Outline: as §1
# [13] = biological target: Neu5Ac(a2-3)Gal(b1-4)[Fuc(a1-3)]GlcNAc6S
# Outline: as §1
# [14] = biological target: Neu5Ac(a2-3)Gal6S(b1-4)GlcNAc
# Outline: as §1
# [15] = biological target: Neu5Ac(a2-3)Gal6S(b1-4)[Fuc(a1-3)]GlcNAc
# Outline: as §1
# [16] = biological target: Neu5Ac(a2-3)GalNAc
# Outline: as §1
# [17] = biological target: Neu5Ac(a2-3)GalNAc(b1-4)GlcNAc
# Outline: as §1
# [18] = biological target: Neu5Ac(a2-3)[GalNAc(b1-4)]Gal(b1-4)Glc
# Outline: as §1
# [19] = biological target: Neu5Ac(a2-3)[GalNAc(b1-4)]Gal(b1-4)GlcNAc
# Outline: as §1
# [20] = biological target: Neu5Ac(a2-3)[GalNAc(b1-4)]Gal(b1-4)GlcNAc(b1-3)GalNAc
# Outline: as §1
# [21] = biological target: Neu5Ac(a2-3)[Neu5Ac(a2-6)]GalNAc
# Outline: as §1
# [22] = biological target: Neu5Ac(a2-6)Gal
# Outline: as §1
# [23] = biological target: Neu5Ac(a2-6)Gal(b1-3)GlcNAc(b1-3)[Gal(b1-4)GlcNAc(b1-6)]Gal(b1-4)Glc
# Outline: as §1
# [24] = biological target: Neu5Ac(a2-6)Gal(b1-4)Glc
# Outline: as §1
# [25] = biological target: Neu5Ac(a2-6)Gal(b1-4)GlcNAc
# Outline: as §1
# [26] = biological target: Neu5Ac(a2-6)Gal(b1-4)GlcNAc(b1-2)Man
# Outline: as §1
# [27] = biological target: Neu5Ac(a2-6)Gal(b1-4)GlcNAc(b1-2)Man(a1-3)Man(b1-4)GlcNAc(b1-4)GlcNAc
# Outline: as §1
# [28] = biological target: Neu5Ac(a2-6)Gal(b1-4)GlcNAc(b1-2)Man(a1-3)[Gal(b1-4)GlcNAc(b1-2)Man(a1-6)]Man(b1-4)GlcNAc(b1-4)GlcNAc
# Outline: as §1
# [29] = biological target: Neu5Ac(a2-6)Gal(b1-4)GlcNAc(b1-2)Man(a1-3)[GlcNAc(b1-2)Man(a1-6)]Man(b1-4)GlcNAc(b1-4)GlcNAc
# Outline: as §1
# [30] = biological target: Neu5Ac(a2-6)Gal(b1-4)GlcNAc(b1-2)Man(a1-3)[GlcNAc(b1-4)][Neu5Ac(a2-6)Gal(b1-4)GlcNAc(b1-2)Man(a1-6)]Man(b1-4)GlcNAc(b1-4)GlcNAc
# Outline: as §1
# [31] = biological target: Neu5Ac(a2-6)Gal(b1-4)GlcNAc(b1-2)Man(a1-3)[Man(a1-6)]Man(b1-4)GlcNAc(b1-4)GlcNAc
# Outline: as §1
# [32] = biological target: Neu5Ac(a2-6)Gal(b1-4)GlcNAc(b1-2)Man(a1-3)[Neu5Ac(a2-3)Gal(b1-4)GlcNAc(b1-2)Man(a1-6)]Man(b1-4)GlcNAc(b1-4)GlcNAc
# Outline: as §1
# [33] = biological target: Neu5Ac(a2-6)Gal(b1-4)GlcNAc(b1-2)Man(a1-3)[Neu5Ac(a2-6)Gal(b1-4)GlcNAc(b1-2)Man(a1-6)]Man(b1-4)GlcNAc(b1-4)GlcNAc
# Outline: as §1
# [34] = biological target: Neu5Ac(a2-6)Gal(b1-4)GlcNAc(b1-2)Man(a1-3)[Neu5Ac(a2-6)Gal(b1-4)GlcNAc(b1-2)Man(a1-6)]Man(b1-4)GlcNAc(b1-4)[Fuc(a1-6)]GlcNAc
# Outline: as §1
# [35] = biological target: Neu5Ac(a2-6)Gal(b1-4)GlcNAc(b1-2)Man(a1-6)Man(b1-4)GlcNAc(b1-4)GlcNAc
# Outline: as §1
# [36] = biological target: Neu5Ac(a2-6)Gal(b1-4)GlcNAc(b1-2)Man(a1-6)[Gal(b1-4)GlcNAc(b1-2)Man(a1-3)]Man(b1-4)GlcNAc(b1-4)GlcNAc
# Outline: as §1
# [37] = biological target: Neu5Ac(a2-6)Gal(b1-4)GlcNAc(b1-2)Man(a1-6)[GlcNAc(b1-2)Man(a1-3)]Man(b1-4)GlcNAc(b1-4)GlcNAc
# Outline: as §1
# [38] = biological target: Neu5Ac(a2-6)Gal(b1-4)GlcNAc(b1-2)Man(a1-6)[Man(a1-3)]Man(b1-4)GlcNAc(b1-4)GlcNAc
# Outline: as §1
# [39] = biological target: Neu5Ac(a2-6)Gal(b1-4)GlcNAc(b1-2)[Neu5Ac(a2-6)Gal(b1-4)GlcNAc(b1-4)]Man(a1-3)[GlcNAc(b1-4)][Neu5Ac(a2-6)Gal(b1-4)GlcNAc(b1-2)[Neu5Ac(a2-6)Gal(b1-4)GlcNAc(b1-6)]Man(a1-6)]Man(b1-4)GlcNAc(b1-4)GlcNAc
# Outline: as §1
# [40] = biological target: Neu5Ac(a2-6)Gal(b1-4)GlcNAc(b1-2)[Neu5Ac(a2-6)Gal(b1-4)GlcNAc(b1-4)]Man(a1-3)[GlcNAc(b1-4)][Neu5Ac(a2-6)Gal(b1-4)GlcNAc(b1-4)Man(a1-6)]Man(b1-4)GlcNAc(b1-4)GlcNAc
# Outline: as §1
# [41] = biological target: Neu5Ac(a2-6)Gal(b1-4)GlcNAc(b1-2)[Neu5Ac(a2-6)Gal(b1-4)GlcNAc(b1-6)]Man(a1-6)[Neu5Ac(a2-6)Gal(b1-4)GlcNAc(b1-2)Man(a1-3)][GlcNAc(b1-4)]Man(b1-4)GlcNAc(b1-4)GlcNAc
# Outline: as §1
# [42] = biological target: Neu5Ac(a2-6)Gal(b1-4)GlcNAc(b1-3)Gal(b1-3)GlcNAc
# Outline: as §1
# [43] = biological target: Neu5Ac(a2-6)Gal(b1-4)GlcNAc(b1-3)Gal(b1-4)GlcNAc
# Outline: as §1
# [44] = biological target: Neu5Ac(a2-6)Gal(b1-4)GlcNAc(b1-3)Gal(b1-4)GlcNAc(b1-2)Man(a1-3)[Neu5Ac(a2-6)Gal(b1-4)GlcNAc(b1-3)Gal(b1-4)GlcNAc(b1-2)Man(a1-6)]GalNAc
# Outline: as §1
# [45] = biological target: Neu5Ac(a2-6)Gal(b1-4)GlcNAc(b1-3)Gal(b1-4)GlcNAc(b1-3)Gal(b1-4)GlcNAc
# Outline: as §1
# [46] = biological target: Neu5Ac(a2-6)Gal(b1-4)GlcNAc(b1-3)Gal(b1-4)GlcNAc(b1-3)Gal(b1-4)GlcNAc(b1-2)Man(a1-3)[Neu5Ac(a2-6)Gal(b1-4)GlcNAc(b1-3)Gal(b1-4)GlcNAc(b1-3)Gal(b1-4)GlcNAc(b1-2)Man(a1-6)]GalNAc
# Outline: as §1
binder,measurement,setting,value
B1,glycan array binding signal (z-score),[1],-0.155
same,glycan array binding signal (z-score),[2],0.222
same,glycan array binding signal (z-score),[3],-0.336
same,glycan array binding signal (z-score),[4],0.134
same,glycan array binding signal (z-score),[5],-1.21
same,glycan array binding signal (z-score),[6],0.198
same,glycan array binding signal (z-score),[7],0.01
same,glycan array binding signal (z-score),[8],-0.581
same,glycan array binding signal (z-score),[9],0.186
same,glycan array binding signal (z-score),[10],0.885
same,glycan array binding signal (z-score),[11],-0.423
same,glycan array binding signal (z-score),[12],0.459
same,glycan array binding signal (z-score),[13],0.193
same,glycan array binding signal (z-score),[14],-1.25
same,glycan array binding signal (z-score),[15],-0.389
same,glycan array binding signal (z-score),[16],0.679
same,glycan array binding signal (z-score),[17],-0.796
same,glycan array binding signal (z-score),[18],-0.64
same,glycan array binding signal (z-score),[19],-0.676
same,glycan array binding signal (z-score),[20],-0.884
same,glycan array binding signal (z-score),[21],-0.772
same,glycan array binding signal (z-score),[22],0.733
same,glycan array binding signal (z-score),[23],0.052
same,glycan array binding signal (z-score),[24],-0.418
same,glycan array binding signal (z-score),[25],-0.543
same,glycan array binding signal (z-score),[26],0.218
same,glycan array binding signal (z-score),[27],-0.432
same,glycan array binding signal (z-score),[28],0.156
same,glycan array binding signal (z-score),[29],-0.739
same,glycan array binding signal (z-score),[30],-1.44
same,glycan array binding signal (z-score),[31],0.549
same,glycan array binding signal (z-score),[32],0.925
same,glycan array binding signal (z-score),[33],-0.058
same,glycan array binding signal (z-score),[34],-0.455
same,glycan array binding signal (z-score),[35],0.038
same,glycan array binding signal (z-score),[36],0.4
same,glycan array binding signal (z-score),[37],0.435
same,glycan array binding signal (z-score),[38],-0.804
same,glycan array binding signal (z-score),[39],-0.139
same,glycan array binding signal (z-score),[40],0.41
same,glycan array binding signal (z-score),[41],-0.631
same,glycan array binding signal (z-score),[42],-0.915
same,glycan array binding signal (z-score),[43],-0.736
same,glycan array binding signal (z-score),[44],-0.427
same,glycan array binding signal (z-score),[45],-0.806
same,glycan array binding signal (z-score),[46],1.35

# Rewritten with tabs: entries from further up
binder	measurement	setting	value
B1	glycan array binding signal (z-score)	[15]	-0.389
same	glycan array binding signal (z-score)	[16]	0.679
same	glycan array binding signal (z-score)	[17]	-0.796
